The other results are listed elsewhere or left out. Most values lie at the level of the controls, where differences are scatter.
Compound: CN[C@@H]1C[C@H]2O[C@@](C)([C@@H]1OC)n1c3ccccc3c3c4c(c5c6ccccc6n2c5c31)C(=O)NC4 [staurosporine]
Assay: log2 fold change of tryptic peptide abundance, ligand vs vehicle (limited proteolysis) (log2 ratio); higher = more trypsin-susceptible (destabilized)
Details: ligand concentration: 20 uM; sample: mouse liver crude lysate; replicate design: treated separately

Chains of the proteins cited; added tags and fusions are not shown. Lines headed by an entry give the natural chain unless they say otherwise; changes in a name come on top.
UniProt Q9CQY6: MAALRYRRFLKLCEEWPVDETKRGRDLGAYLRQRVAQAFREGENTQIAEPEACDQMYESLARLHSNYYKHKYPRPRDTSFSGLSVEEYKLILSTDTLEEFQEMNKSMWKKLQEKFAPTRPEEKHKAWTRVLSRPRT
UniProt Q9CQG1: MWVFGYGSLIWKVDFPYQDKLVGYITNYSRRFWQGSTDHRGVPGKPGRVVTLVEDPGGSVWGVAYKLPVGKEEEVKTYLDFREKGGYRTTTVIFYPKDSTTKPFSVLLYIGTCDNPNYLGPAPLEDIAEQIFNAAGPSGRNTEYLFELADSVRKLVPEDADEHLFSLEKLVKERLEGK
UniProt Q99PP6: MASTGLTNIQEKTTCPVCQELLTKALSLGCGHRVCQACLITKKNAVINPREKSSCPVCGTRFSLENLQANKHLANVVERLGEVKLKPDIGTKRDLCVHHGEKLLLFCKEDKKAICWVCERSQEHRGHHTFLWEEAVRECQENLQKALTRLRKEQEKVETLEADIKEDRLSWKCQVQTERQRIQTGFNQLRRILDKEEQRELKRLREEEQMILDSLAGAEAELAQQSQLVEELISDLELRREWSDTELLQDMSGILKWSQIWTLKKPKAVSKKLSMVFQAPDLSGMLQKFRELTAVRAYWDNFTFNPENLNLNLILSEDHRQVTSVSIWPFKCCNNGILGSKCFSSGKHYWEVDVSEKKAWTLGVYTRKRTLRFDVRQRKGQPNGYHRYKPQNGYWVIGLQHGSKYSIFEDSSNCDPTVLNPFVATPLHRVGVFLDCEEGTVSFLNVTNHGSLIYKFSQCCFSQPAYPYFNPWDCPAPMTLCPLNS
UniProt Q99N69: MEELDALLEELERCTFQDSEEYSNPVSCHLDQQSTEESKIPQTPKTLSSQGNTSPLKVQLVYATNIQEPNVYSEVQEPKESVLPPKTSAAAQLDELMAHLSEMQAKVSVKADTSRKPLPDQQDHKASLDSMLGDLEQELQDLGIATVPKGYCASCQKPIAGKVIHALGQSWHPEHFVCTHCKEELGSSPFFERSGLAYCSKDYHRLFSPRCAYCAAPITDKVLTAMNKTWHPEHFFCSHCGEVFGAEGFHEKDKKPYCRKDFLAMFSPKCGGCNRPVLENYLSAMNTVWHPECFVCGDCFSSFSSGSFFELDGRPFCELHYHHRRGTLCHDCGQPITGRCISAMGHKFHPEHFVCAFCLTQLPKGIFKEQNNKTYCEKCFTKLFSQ
UniProt Q99N84, whole entry: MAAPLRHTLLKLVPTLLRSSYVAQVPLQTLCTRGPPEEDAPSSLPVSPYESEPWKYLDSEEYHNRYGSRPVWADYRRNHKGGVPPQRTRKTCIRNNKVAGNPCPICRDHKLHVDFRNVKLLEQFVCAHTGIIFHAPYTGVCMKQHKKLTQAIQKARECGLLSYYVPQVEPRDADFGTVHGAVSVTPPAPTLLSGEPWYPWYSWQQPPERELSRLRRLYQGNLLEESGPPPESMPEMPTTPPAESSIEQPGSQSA

Target	log2 fold change
UniProt Q9CQY6 (peptide sequence: GRDLGAYLR, peptide start residue: 24)	0.488
UniProt Q9CQG1 (peptide sequence: RFWQGSTDHR, peptide start residue: 31)	0.219
UniProt Q99PP6 (peptide sequence: VCQACLITKK, peptide start residue: 34)	0.123
UniProt Q99N69 (peptide sequence: TLSSQGNTSPLK, peptide start residue: 46)	0.0382
UniProt Q99N84 (peptide sequence: VAGNPCPICR, peptide start residue: 98)	0.106
